Assay results as given in doi:10.1101/2025.08.31.673341.
These are yes or no findings as the source states them, for the method shown. For some assays here: Binding calls can cover weak binding; strength is not graded here. Sequences can lack the tags named with a protein. For some assays here: Binding seen in cells or lysates may run through a third protein. Values belong to the substance of their own block, whether it stands above or below them.

How the values were obtained:
[1] = target: T1, LIGHT-REGULATED WD1 (LWD1), GAL4 activation domain fusion (Arabidopsis) (UniProt Q9LPV9); assay: two-hybrid
T1 sequence: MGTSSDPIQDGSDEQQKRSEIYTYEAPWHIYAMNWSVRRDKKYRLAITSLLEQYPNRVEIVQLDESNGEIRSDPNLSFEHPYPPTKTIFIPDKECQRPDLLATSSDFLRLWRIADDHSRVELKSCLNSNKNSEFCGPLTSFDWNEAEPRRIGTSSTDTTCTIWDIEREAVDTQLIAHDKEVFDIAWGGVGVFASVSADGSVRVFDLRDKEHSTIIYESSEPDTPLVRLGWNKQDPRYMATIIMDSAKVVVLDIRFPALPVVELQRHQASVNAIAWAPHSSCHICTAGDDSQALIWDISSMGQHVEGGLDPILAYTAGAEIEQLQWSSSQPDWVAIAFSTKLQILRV

[2] = target: T2, CK2, GAL4 activation domain fusion (Arabidopsis) (UniProt Q08466); assay: two-hybrid
T2 sequence: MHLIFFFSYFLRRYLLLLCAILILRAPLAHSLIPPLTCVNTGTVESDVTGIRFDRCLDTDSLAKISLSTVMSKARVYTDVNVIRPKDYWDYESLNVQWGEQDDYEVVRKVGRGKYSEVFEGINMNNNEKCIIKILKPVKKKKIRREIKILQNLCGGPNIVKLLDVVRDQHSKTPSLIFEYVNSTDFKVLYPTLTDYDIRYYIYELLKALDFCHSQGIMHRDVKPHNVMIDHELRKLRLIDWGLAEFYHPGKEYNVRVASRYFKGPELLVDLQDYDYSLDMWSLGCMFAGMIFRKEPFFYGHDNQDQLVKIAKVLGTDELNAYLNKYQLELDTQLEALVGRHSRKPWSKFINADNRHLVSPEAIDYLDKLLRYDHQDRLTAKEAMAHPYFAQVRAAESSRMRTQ

[3] = target: T3, LATE ELONGATED HYPOCOTYL (LHY), GAL4 activation domain fusion (Arabidopsis) (UniProt Q6R0H1); assay: two-hybrid
T3 sequence: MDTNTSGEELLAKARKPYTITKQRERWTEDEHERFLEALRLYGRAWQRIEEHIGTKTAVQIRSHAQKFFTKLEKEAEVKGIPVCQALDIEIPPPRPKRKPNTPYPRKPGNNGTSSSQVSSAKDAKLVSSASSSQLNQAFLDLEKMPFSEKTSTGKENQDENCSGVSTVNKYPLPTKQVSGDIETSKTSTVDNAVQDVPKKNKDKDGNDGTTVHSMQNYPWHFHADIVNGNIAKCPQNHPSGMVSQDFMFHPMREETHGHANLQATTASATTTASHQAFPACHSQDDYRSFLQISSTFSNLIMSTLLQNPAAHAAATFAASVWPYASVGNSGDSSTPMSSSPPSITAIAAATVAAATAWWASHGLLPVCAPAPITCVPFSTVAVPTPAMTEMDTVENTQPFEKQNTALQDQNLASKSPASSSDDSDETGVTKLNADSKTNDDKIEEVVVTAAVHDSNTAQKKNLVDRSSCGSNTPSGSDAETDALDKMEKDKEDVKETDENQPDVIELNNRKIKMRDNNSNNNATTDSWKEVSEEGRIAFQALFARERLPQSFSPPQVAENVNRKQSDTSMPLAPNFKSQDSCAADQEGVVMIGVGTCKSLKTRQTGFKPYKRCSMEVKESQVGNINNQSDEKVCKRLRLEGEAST

[4] = target: T4, REVEILLE6 (RVE6), GAL4 activation domain fusion (Arabidopsis) (UniProt Q8H0W3); assay: two-hybrid
T4 sequence: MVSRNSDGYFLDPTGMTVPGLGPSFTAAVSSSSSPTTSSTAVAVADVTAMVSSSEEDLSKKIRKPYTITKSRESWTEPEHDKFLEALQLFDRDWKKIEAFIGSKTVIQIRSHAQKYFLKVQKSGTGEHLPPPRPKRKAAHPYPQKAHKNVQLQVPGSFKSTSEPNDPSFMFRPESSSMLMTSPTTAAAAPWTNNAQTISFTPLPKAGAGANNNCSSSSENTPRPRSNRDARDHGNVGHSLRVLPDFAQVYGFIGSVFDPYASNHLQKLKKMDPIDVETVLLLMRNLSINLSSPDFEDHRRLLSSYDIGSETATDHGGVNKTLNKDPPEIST

[5] = target: T5, LHY fused to the N-terminal part of YFP (YFPn) (Arabidopsis) (UniProt Q6R0H1); assay: split reporter
T5 sequence: T3 sequence

[6] = target: T6, CK2 fused to the N-terminal part of YFP (YFPn) (Arabidopsis) (UniProt Q08466); assay: split reporter
T6 sequence: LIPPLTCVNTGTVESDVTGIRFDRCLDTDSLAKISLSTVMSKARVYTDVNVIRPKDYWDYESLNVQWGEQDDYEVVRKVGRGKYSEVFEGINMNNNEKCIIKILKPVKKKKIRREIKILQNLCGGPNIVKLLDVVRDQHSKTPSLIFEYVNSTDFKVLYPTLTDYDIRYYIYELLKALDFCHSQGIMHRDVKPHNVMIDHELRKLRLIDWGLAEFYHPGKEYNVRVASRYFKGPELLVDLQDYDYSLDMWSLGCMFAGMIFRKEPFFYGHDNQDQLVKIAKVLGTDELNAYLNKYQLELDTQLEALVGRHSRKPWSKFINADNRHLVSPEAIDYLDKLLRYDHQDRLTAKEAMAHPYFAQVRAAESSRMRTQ

FLAG-LHY (Arabidopsis) = target: T7, FLAG-LHY (Arabidopsis) (UniProt Q6R0H1); assay: co-IP
T7 sequence: T3 sequence

Substance: PLANT U-BOX 18 (PUB18) decoy, GAL4 DNA-binding domain fusion (Arabidopsis) (domain or fragment)
- binding [2]: binds
- binding [3]: binds

Substance: U-box-deleted PUB18 (PUB18dU) fused to the C-terminal part of YFP (YFPc) (Arabidopsis) (domain or fragment)
- binding [5]: binds
- binding [6]: no binding

Substance: U-box-deleted PUB19 (PUB19dU) fused to the C-terminal part of YFP (YFPc) (Arabidopsis) (domain or fragment)
- binding [5]: no binding

Second part, the substance after the results:

- binding [1]: binds
Substance: ZEITLUPE (ZTL) decoy, GAL4 DNA-binding domain fusion (Arabidopsis) (domain or fragment)

- binding [4]: binds
Substance: ALTERED CLOCK F-BOX 1 (ACF1) decoy, GAL4 DNA-binding domain fusion (Arabidopsis) (domain or fragment)

- binding (FLAG-LHY (Arabidopsis)): binds
Substance: YFP-PUB18dU (U-box-deleted PUB18 fused to YFP) (Arabidopsis) (domain or fragment)
